Residue numbers refer to the chain shown, from its start. Numbers in names are those of the source.
B1: μ4-D190A: recombinant μ4 C-terminal domain with single mutation D190A at the μ2-binding site (protein)
chain: QQSKVAPSSAASRPVLSSRSDQSQKNEVFLAVVERLSVLIASNGSLLKVDVQGEIRLKSFLPSGSEMRIGLTEEFCVGKSELRGYGPGIRVDEVSFHSSVNLDEFESHRILRLQPPQGELTVMRYQLSDDLPSPLPFRLFPSVQWDRGSGRLQVYLKLRCDLLSKSQALNVRLHLPLPRGVVSLSQELSSPEQKAELAEGALRWDLPRVQGGSQLSGLFQMDVPGPPGPPSHGLSTSASPLGLGPASLSFELPRHTCSGLQVRFLRLAFRPCGNANPHKWVRHLSHSDAYVIRI
modifications: left off: GST, N-terminal, cleaved
B2: μ4-R283D: μ4 with the single mutation R283D at the μ4-binding site (C-terminal domain; untagged full-length in b45) (protein)
chain: B1 chain with A31D, R124D
modifications: left off: GST, N-terminal, cleaved
B3: μ4-D190S: D190S mutant of μ4 (C-terminal domain in vitro; full-length, HA-tagged or untagged, in cells) (protein)
chain: B1 chain with A31S
modifications: left off: GST, N-terminal, cleaved

Each molecule was assayed on proteinase K (assay: Limited proteolysis with proteinase K). Conditions: C-terminal domain, 50°C, 10 min, pH 7.4, SDS-PAGE.

Row | Molecule | proteolysis pattern / degradation
1 | B1 | almost completely degraded
2 | B2 | three fragments that likely corresponded to the stable fragments generated at 25 °C
3 | B3 | indistinguishable from that of wild-type μ4

Source: paper PMC3912200, “Structural and Functional Characterization of Cargo-Binding Sites on the μ4-Subunit of Adaptor Protein Complex 4” (PLoS ONE, 2014)
